# Source: US7186551B1, “3′-phosphoadenosine -5′-phosphosulfate synthetase 2 (PAPSS2) sequence variants” (Mayo Foundation for Medical Education and Research, priority 2001, dated 2007)
# Tested on: immunoreactive PAPSS2 protein
# Assay: Quantitative Western blot of recombinant PAPSS2 allozymes expressed in COS-1 cells (anti-His antibody)
# Design: species or system human
# Details: COS-1 cell preparations, gel loading corrected for transfection efficiency, relative to wild type
# Procedure: Western Blot Analysis: Quantitative Western blot analysis was performed with recombinant PAPSS2 allozymes after expression in COS-1 cells. Since all constructs included an N-terminal His-tag, we used anti-His monoclonal antibodies (Invitrogen) to measure levels of immunoreactive PAPSS2 protein with the ECL detection system (Amersham Pharmacia, Piscataway, N.J.). The quantity of COS-1 cell preparation loaded on the gel for each allozyme was adjusted to achieve equal quantities of β-galactosidase activity, i.e., gel loading was adjusted to correct for transfection efficiency. The AMBIS Radioanalytic Imaging System, Quant Probe Version 4.31 (Ambis, Inc., San Diego, Calif.) was used to quantitate immunoreactive protein in each lane, and those data were expressed as a percentage of the intensity of the wild type PAPSS2 band on the gel.
# To determine whether decreases in levels of variant allozyme PAPSS2 activity might be related to quantity of immunoreactive enzyme protein, quantitative Western blot analyses were conducted. […] Furthermore, these COS-1 cell preparations contained β-galactosidase activity similar to that observed with other recombinant allozymes. The enzyme activity results thus were not the result of low transfection efficiency.
row,Molecule,level of immunoreactive protein
1,Glu10Lys: PAPSS2 polypeptide allozyme having a lysine at amino acid residue 10 in place of glutamic acid (adenine at nucleotide 28) (protein) MSGIKKQKTKNQQKSTNVVYQAHHVSRNKRGQVVGTRGGFRGCTVWLTGLSGAGKTTISFALEEYLVSHAIPCYSLDGDNVRHGLNRNLGFSPGDREENIRRIAEVAKLFADAGLVCITSFISPFAKDRENARKIHESAGLPFFEIFVDAPLNICESRDVKGLYKRARAGEIKGFTGIDSDYEKPETPERVLKTNLSTVSDCVHQVVELLQEQNIVPYTIIKDIHELFVPENKLDHVRAEAETLPSLSITKLDLQWVQVLSEGWATPLKGFMREKEYLQVMHFDTLLDDGVINMSIPIVLPVSAEDKTRLEGCSKFVLAHGGRRVAILRDAEFYEHRKEERCSRVWGTTCTKHPHIKMVMESGDWLVGGDLQVLEKIRWNDGLDQYRLTPLELKQKCKEMNADAVFAFQLRNPVHNGHALLMQDTCRRLLERGYKHPVLLLHPLGGWTKDDDVPLDWRMKQHAAVLEEGVLDPKSTIVAIFPSPMLYAGPTEVQWHCRSRMIAGANFYIVGRDPAGMPHPETKKDLYEPTHGGKVLSMAPGLTSVEIIPFRVAAYNKAKKAMDFYDPARHNEFDFISGTRMRKLAREGENPPDGFMAPKAWKVLTDYYRSLEKN,significant reduction in the level of immunoreactive protein
2,Val291Met: PAPSS2 polypeptide allozyme having a methionine at amino acid 291 in place of valine (adenine at nucleotide 871) (protein) MSGIKKQKTENQQKSTNVVYQAHHVSRNKRGQVVGTRGGFRGCTVWLTGLSGAGKTTISFALEEYLVSHAIPCYSLDGDNVRHGLNRNLGFSPGDREENIRRIAEVAKLFADAGLVCITSFISPFAKDRENARKIHESAGLPFFEIFVDAPLNICESRDVKGLYKRARAGEIKGFTGIDSDYEKPETPERVLKTNLSTVSDCVHQVVELLQEQNIVPYTIIKDIHELFVPENKLDHVRAEAETLPSLSITKLDLQWVQVLSEGWATPLKGFMREKEYLQVMHFDTLLDDGMINMSIPIVLPVSAEDKTRLEGCSKFVLAHGGRRVAILRDAEFYEHRKEERCSRVWGTTCTKHPHIKMVMESGDWLVGGDLQVLEKIRWNDGLDQYRLTPLELKQKCKEMNADAVFAFQLRNPVHNGHALLMQDTCRRLLERGYKHPVLLLHPLGGWTKDDDVPLDWRMKQHAAVLEEGVLDPKSTIVAIFPSPMLYAGPTEVQWHCRSRMIAGANFYIVGRDPAGMPHPETKKDLYEPTHGGKVLSMAPGLTSVEIIPFRVAAYNKAKKAMDFYDPARHNEFDFISGTRMRKLAREGENPPDGFMAPKAWKVLTDYYRSLEKN,did not result in a change in the level of immunoreactive protein
